Data as given in PubChem BioAssay AID504764 (Drosophila RNAi Screening Center, 2011).
Test: 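Knock-downs that raise or lower a Notch target reporter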 (primary screen). Cells: Drosophila Kc167 cells. Reagents: long dsRNA against Drosophila genes. Duration: about 5 days (4 days dsRNA, then 24 h after transfection). Treatment: transfection of constitutively active membrane-tethered Notch lacking the extracellular domain, read 24 h later. Detection: 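Light from a Notch-responsive E(spl)m3 luciferase reporter under active Notch, with control-promoter and no-Notch reporter wells to normalise; raw counts from paired wells a and b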. Direction: induced reporter light, run 1, well a and induced reporter light, run 1, well b: higher = more light from the Notch target reporter with active Notch; control promoter light, run 1, well a and control promoter light, run 1, well b: higher = more light from the viral control promoter (cell number, transfection, viability); uninduced reporter light, run 1, well a: higher = more light from the Notch target reporter without active Notch. Active means: 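Hit if the duplicate-averaged log2 ratio of induced to control-promoter light gives a plate-wise z beyond ±2, or induced to uninduced beyond ±1.8; weak-control or discordant-duplicate wells dropped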. Meaning of the calls: active = modifier hit (raised or lowered Notch signal); inactive = not a hit.
In all, the deposit lists about 22,000 reagents; shown is a random part of those that have a named target and a result. In the full data, 403 (1.9%) got an active call. 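Unnormalised raw counts per well; ratio z-scores behind the hit calls and whether each hit raises or lowers signal are not deposited.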 The record does not give: the amount of reagent.

For BthD (GeneID 32317) [DRSC19395], the entry reads induced reporter light, run 1, well a = 82350; induced reporter light, run 1, well b = 1.07e5; control promoter light, run 1, well a = 1.11e5; control promoter light, run 1, well b = 74285; uninduced reporter light, run 1, well a = 5740; inactive.
With knock-down of lectin-21Cb (GeneID 33242) [DRSC00355], the screen gave induced reporter light, run 1, well a = 1.24e5; induced reporter light, run 1, well b = 1.04e5; control promoter light, run 1, well a = 79755; control promoter light, run 1, well b = 40275; uninduced reporter light, run 1, well a = 8055; inactive.
With knock-down of CG10973 (GeneID 39447) [DRSC09813] the results were induced reporter light, run 1, well a = 93840; induced reporter light, run 1, well b = 1.10e5; control promoter light, run 1, well a = 91565; control promoter light, run 1, well b = 47215; uninduced reporter light, run 1, well a = 9480; inactive.
Against dmrt99B (GeneID 43495) [DRSC15045] the deposit lists induced reporter light, run 1, well a = 6320; induced reporter light, run 1, well b = 4282; control promoter light, run 1, well a = 9250; control promoter light, run 1, well b = 9095; uninduced reporter light, run 1, well a = 2215; inactive.
Depletion of egl (GeneID 37757) [DRSC04682] gave: induced reporter light, run 1, well a = 1.65e5; induced reporter light, run 1, well b = 1.32e5; control promoter light, run 1, well a = 1.63e5; control promoter light, run 1, well b = 1.44e5; uninduced reporter light, run 1, well a = 9730; inactive.
With knock-down of IntS4 (GeneID 31793) [DRSC17810] the results were induced reporter light, run 1, well a = 1.47e5; induced reporter light, run 1, well b = 1.51e5; control promoter light, run 1, well a = 1.36e5; control promoter light, run 1, well b = 1.50e5; uninduced reporter light, run 1, well a = 16042; inactive.
Las (GeneID 40259) [DRSC11772] gave induced reporter light, run 1, well a = 90205; induced reporter light, run 1, well b = 1.05e5; control promoter light, run 1, well a = 60690; control promoter light, run 1, well b = 76440; uninduced reporter light, run 1, well a = 8525; inactive.
Against beat-IIIa (GeneID 35035) [DRSC01575], the values are induced reporter light, run 1, well a = 77500; induced reporter light, run 1, well b = 69160; control promoter light, run 1, well a = 77260; control promoter light, run 1, well b = 68615; uninduced reporter light, run 1, well a = 7470; inactive.
Silencing of beat-IIIa (GeneID 35035) [DRSC01577] resulted in: induced reporter light, run 1, well a = 1.24e5; induced reporter light, run 1, well b = 93450; control promoter light, run 1, well a = 85920; control promoter light, run 1, well b = 93590; uninduced reporter light, run 1, well a = 7695; inactive.
Knock-down of beat-IIIa (GeneID 35035) [DRSC02178] gave: induced reporter light, run 1, well a = 1.65e5; induced reporter light, run 1, well b = 1.93e5; control promoter light, run 1, well a = 1.66e5; control promoter light, run 1, well b = 1.90e5; uninduced reporter light, run 1, well a = 14175; inactive.
For CG34025 (GeneID 3885633) [DRSC08014], the values are induced reporter light, run 1, well a = 2.44e5; induced reporter light, run 1, well b = 2.50e5; control promoter light, run 1, well a = 2.17e5; control promoter light, run 1, well b = 2.00e5; uninduced reporter light, run 1, well a = 20260; inactive.
After knock-down of Trs23 (GeneID 34197) [DRSC03190], the screen gave induced reporter light, run 1, well a = 1.75e5; induced reporter light, run 1, well b = 2.14e5; control promoter light, run 1, well a = 1.11e5; control promoter light, run 1, well b = 1.30e5; uninduced reporter light, run 1, well a = 23015; inactive.

In a second layout: 2 of the entries above.
{"target": "dmrt99B (GeneID 43495)", "DRSC id": "DRSC15045", "induced reporter light, run 1, well a": 6320, "induced reporter light, run 1, well b": 4282, "control promoter light, run 1, well a": 9250, "control promoter light, run 1, well b": 9095, "uninduced reporter light, run 1, well a": 2215, "outcome": "inactive"}
{"target": "egl (GeneID 37757)", "DRSC id": "DRSC04682", "induced reporter light, run 1, well a": 1.65e5, "induced reporter light, run 1, well b": 1.32e5, "control promoter light, run 1, well a": 1.63e5, "control promoter light, run 1, well b": 1.44e5, "uninduced reporter light, run 1, well a": 9730, "outcome": "inactive"}
